PubChem BioAssay AID1259254 | NCATS | 2017
Assay: 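Genome-wide screen for genes that prevent DNA re-replication in cancer cells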 (primary screen). System: human HCT116 colorectal cancer cells. Reagents: single siRNA against human genes. Time to read-out: 3 days. Measured: 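Nuclei stained with Hoechst and imaged; cell-cycle phase assigned by DNA content; G2 share scaled per plate, non-targeting siRNA 0%, GMNN siRNA 100%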. Scale: G2 robust z-score and G2 cells, % of GMNN control: higher = more G2 cells, more excess DNA replication. Hit rule: 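Active siRNAs have a G2 robust z of 5 or more median absolute deviations over the median, which in these data means about 38% or higher of GMNN control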.
Shown is a random part of about 59,000 deposited reagents. About 1,550 of all reagents (2.6%) were called active. 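G2 share is only a proxy for re-replication; each gene was hit by three separate siRNAs, and active genes were retested.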 The numbers tell different reagents against one gene apart. Not all columns of the deposit are shown. No sequences are given here. Not stated in the record: the amount of reagent.

{"gene": "LOC644667 (GeneID 644667)", "siRNA no.": 1, "G2 robust z-score": -0.735, "G2 cells, % of GMNN control": -2.21, "outcome": "inactive"}
{"gene": "LOC644667 (GeneID 644667)", "siRNA no.": 2, "G2 robust z-score": 0.00895, "G2 cells, % of GMNN control": 3.03, "outcome": "inactive"}
{"gene": "LOC644667 (GeneID 644667)", "siRNA no.": 3, "G2 robust z-score": -0.396, "G2 cells, % of GMNN control": 0.183, "outcome": "inactive"}
{"gene": "WDFY1 (GeneID 57590)", "siRNA no.": 1, "G2 robust z-score": -0.366, "G2 cells, % of GMNN control": 0.391, "outcome": "inactive"}
{"gene": "WDFY1 (GeneID 57590)", "siRNA no.": 2, "G2 robust z-score": -0.344, "G2 cells, % of GMNN control": 0.55, "outcome": "inactive"}
{"gene": "WDFY1 (GeneID 57590)", "siRNA no.": 3, "G2 robust z-score": 0.623, "G2 cells, % of GMNN control": 7.35, "outcome": "inactive"}
{"gene": "SVIP (GeneID 258010)", "siRNA no.": 1, "G2 robust z-score": -0.062, "G2 cells, % of GMNN control": 2.53, "outcome": "inactive"}
{"gene": "SVIP (GeneID 258010)", "siRNA no.": 2, "G2 robust z-score": 0.27, "G2 cells, % of GMNN control": 4.87, "outcome": "inactive"}
{"gene": "SVIP (GeneID 258010)", "siRNA no.": 3, "G2 robust z-score": 0.0126, "G2 cells, % of GMNN control": 3.06, "outcome": "inactive"}
{"gene": "SOCS5P5 (GeneID 643884)", "siRNA no.": 1, "G2 robust z-score": -0.0861, "G2 cells, % of GMNN control": 2.36, "outcome": "inactive"}
{"gene": "SOCS5P5 (GeneID 643884)", "siRNA no.": 2, "G2 robust z-score": 0.896, "G2 cells, % of GMNN control": 9.27, "outcome": "inactive"}
{"gene": "SOCS5P5 (GeneID 643884)", "siRNA no.": 3, "G2 robust z-score": 0.0915, "G2 cells, % of GMNN control": 3.61, "outcome": "inactive"}
{"gene": "SAT1 (GeneID 6303)", "siRNA no.": 1, "G2 robust z-score": -0.214, "G2 cells, % of GMNN control": 1.46, "outcome": "inactive"}
{"gene": "SAT1 (GeneID 6303)", "siRNA no.": 2, "G2 robust z-score": -0.963, "G2 cells, % of GMNN control": -3.8, "outcome": "inactive"}
{"gene": "SAT1 (GeneID 6303)", "siRNA no.": 3, "G2 robust z-score": -0.535, "G2 cells, % of GMNN control": -0.795, "outcome": "inactive"}
{"gene": "ARAP1 (GeneID 116985)", "siRNA no.": 1, "G2 robust z-score": 1.26, "G2 cells, % of GMNN control": 11.8, "outcome": "inactive"}
{"gene": "ARAP1 (GeneID 116985)", "siRNA no.": 2, "G2 robust z-score": -0.101, "G2 cells, % of GMNN control": 2.26, "outcome": "inactive"}
{"gene": "ARAP1 (GeneID 116985)", "siRNA no.": 3, "G2 robust z-score": -0.462, "G2 cells, % of GMNN control": -0.287, "outcome": "inactive"}
{"gene": "TNIK (GeneID 23043)", "siRNA no.": 1, "G2 robust z-score": -1.01, "G2 cells, % of GMNN control": -4.15, "outcome": "inactive"}
{"gene": "TNIK (GeneID 23043)", "siRNA no.": 2, "G2 robust z-score": 1.07, "G2 cells, % of GMNN control": 10.5, "outcome": "inactive"}
{"gene": "TNIK (GeneID 23043)", "siRNA no.": 3, "G2 robust z-score": -1.24, "G2 cells, % of GMNN control": -5.76, "outcome": "inactive"}
{"gene": "LRRCC1 (GeneID 85444)", "siRNA no.": 1, "G2 robust z-score": -0.698, "G2 cells, % of GMNN control": -1.95, "outcome": "inactive"}
{"gene": "LRRCC1 (GeneID 85444)", "siRNA no.": 2, "G2 robust z-score": 0.218, "G2 cells, % of GMNN control": 4.5, "outcome": "inactive"}
{"gene": "LRRCC1 (GeneID 85444)", "siRNA no.": 3, "G2 robust z-score": -0.122, "G2 cells, % of GMNN control": 2.11, "outcome": "inactive"}

Entries above whose gene name starts with L or l:
{"gene": "LOC644667 (GeneID 644667)", "siRNA no.": 1, "G2 robust z-score": -0.735, "G2 cells, % of GMNN control": -2.21, "outcome": "inactive"}
{"gene": "LOC644667 (GeneID 644667)", "siRNA no.": 2, "G2 robust z-score": 0.00895, "G2 cells, % of GMNN control": 3.03, "outcome": "inactive"}
{"gene": "LOC644667 (GeneID 644667)", "siRNA no.": 3, "G2 robust z-score": -0.396, "G2 cells, % of GMNN control": 0.183, "outcome": "inactive"}
{"gene": "LRRCC1 (GeneID 85444)", "siRNA no.": 1, "G2 robust z-score": -0.698, "G2 cells, % of GMNN control": -1.95, "outcome": "inactive"}
{"gene": "LRRCC1 (GeneID 85444)", "siRNA no.": 2, "G2 robust z-score": 0.218, "G2 cells, % of GMNN control": 4.5, "outcome": "inactive"}
{"gene": "LRRCC1 (GeneID 85444)", "siRNA no.": 3, "G2 robust z-score": -0.122, "G2 cells, % of GMNN control": 2.11, "outcome": "inactive"}
